Measured values: PubChem BioAssay AID1487 (National Center for Advancing Translational Sciences (NCATS), 2009)
Some of the results follow. Further columns of the screen follow, without active or inactive calls. Most of these compounds were active or inconclusive in the main read-out, so they are no random draw. The note in brackets gives the kind of curve behind each potency; many fits are weak.

Experiment: qHTS Assay for Modulators of Lamin A Splicing
Conditions: HeLa LMNA splicing GFP/RFP minigene ratio, 48 h
Outline: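 S3 HeLa cells stably expressing lamin A-EGFP splicing minigene plus DsRed2, 600 cells/well, 48 h compound exposure at 37C. Laser-scanning cytometry; analysed as GFP (500-530 nm)/RFP (575-640 nm) total intensity ratio; 0.5% DMSO vehicle.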

[1] = measured here: GFP splicing reporter channel
[2] = measured here: RFP viability control channel

Row | SMILES | AC50 [1] | AC50 [2]
1 | CCCCNC(=O)C1CCC(Cn2c(=O)c3sccc3n(CC(=O)Nc3ccccc3)c2=O)CC1 (configuration not stated) | 22.4 µM [falling, single point] | 17.8 µM [falling, partial curve]
2 | O=C(NCc1ccco1)c1cnn2c1NC(c1ccc(Br)cc1)CC2C(F)(F)F (configuration not stated) |  | 15.8 µM [rising, partial curve, poor fit]
3 | O=C(NN=C1CCCCC1)c1ccccc1OCc1ccc(F)cc1 |  | 3.98 µM [rising, partial curve]
4 | O=C(Nc1nccs1)c1ccc(S(=O)(=O)N2CCOCC2)cc1 | 0.0224 µM [rising, full curve, poor fit] | 
5 | O=Cc1ccc(-c2ccccc2C(=O)O)o1 |  | 0.0316 µM [falling, full curve, poor fit]
6 | CC(=O)N(CC(O)CO)c1c(I)c(C(=O)NCC(O)CO)c(I)c(C(=O)NCC(O)CO)c1I (configuration not stated) | 0.00316 µM [falling, full curve, poor fit] | 
7 | Cc1ccc(S(=O)(=O)N2CCc3ccccc3C2CN2C(=O)c3ccccc3C2=O)cc1 (configuration not stated) |  | 35.5 µM [rising, single point]
8 | CC1=C(C(=O)OC(C)C)C(c2cccc([N+](=O)[O-])c2)n2c(cc(=O)[nH]c2=S)N1 (configuration not stated) |  | 0.00316 µM [falling, full curve, poor fit]
9 | COc1cc(-c2cc3n(C)c(C)c(CCC(=O)NC4CCCCC4)c(=O)n3n2)cc(OC)c1OC |  | 0.126 µM [falling, full curve, poor fit]
10 | COc1ccc(S(=O)(=O)Nc2cccc(N(C)S(C)(=O)=O)c2)cc1Br |  | 14.1 µM [rising, single point]
11 | O=C1CC(c2cccc(Br)c2)c2cc3c(cc2N1)CCC3 (configuration not stated) |  | 8.91 µM [falling, partial curve]
12 | CCOc1ccc(NC(=O)Nc2ccc(N(C)C(C)=O)cc2)cc1 |  | 35.5 µM [falling, single point]
13 | CC(=O)Nc1ccc(NC(=O)COC(=O)c2c(C)nn(-c3ccccc3)c2C)cc1 | 6.31 µM [falling, single point] | 
14 | CCCOC(=O)c1ccc(Oc2cn[nH]c2-c2ccc(OC)cc2O)cc1 | 35.5 µM [rising, single point] | 20 µM [rising, single point]
15 | COc1ccc(OCc2ccc(-c3nc(C#N)c(N4CCCCC4)o3)o2)cc1 |  | 0.0126 µM [falling, full curve, poor fit]
16 | COc1ccc(-n2nc([N+](=O)[O-])c(=NCCc3ccc(OC)c(OC)c3)n2O)cc1 | 10 µM [rising, partial curve] | 12.6 µM [rising, partial curve]
17 | OC(COCc1ccccc1)CN1CCN(Cc2ccc3c(c2)OCO3)CC1 (configuration not stated) | 0.0501 µM [rising, full curve] | 0.0501 µM [rising, full curve, poor fit]
18 | CCCCOc1ccc(Br)cc1/C(C)=N/NC1=NCCN1 | 20 µM [falling, partial curve] | 20 µM [falling, single point]
19 | Cc1c(C(=O)N(C)C)sc2c1c(=O)n(-c1ccc(Cl)cc1)c(=O)n2CC(=O)C(C)(C)C | 8.91 µM [falling, full curve, poor fit] | 
20 | O=C(Nc1nccs1)c1cccc(NC(=O)c2ccco2)c1 |  | 22.4 µM [rising, single point]
21 | COc1ccccc1Nc1nc2ccccc2[nH]1 |  | 11.2 µM [rising, single point]
22 | O=C(NCC1CCCO1)c1ccc(OC2CCN(C(=O)C3CC3)CC2)cc1 (configuration not stated) | 17.8 µM [rising, partial curve, poor fit] | 35.5 µM [rising, partial curve, poor fit]
23 | CN(C(=S)Oc1ccc(C(=O)Nc2ccccc2)cc1)c1ccccc1 | 10 µM [rising, single point] | 12.6 µM [rising, partial curve]
24 | N#CC(C(=O)NCc1ccccc1)c1nc2ccccc2nc1N1CCCC1 (configuration not stated) | 5.62 µM [falling, single point] | 5.62 µM [falling, single point]
25 | CCC1=C(c2ccc(C)cc2)S(=O)(=O)N=C1N1CCC(C(=O)NCc2ccc(N(C)C)cc2)CC1 | 22.4 µM [falling, partial curve] | 
26 | CSCSC1=C(C#N)C(c2ccc(Cl)cc2)C(C(C)=O)=C(C)N1 (configuration not stated) |  | 12.6 µM [rising, partial curve, poor fit]
27 | Cc1cccc(N2CCN(C(=O)c3cnc(N4CCCC4)nc3C)CC2)c1C | 35.5 µM [falling, single point] | 
28 | O=C(Nc1ccc(OCc2ccccc2)cc1)c1cccc([N+](=O)[O-])c1 |  | 0.00447 µM [falling, full curve, poor fit]

Row | SMILES | AC50 [1] | AC50 [2]
29 | Cc1cccc(N2CCN(C(=O)c3c(C)nn(Cc4ccccc4Cl)c3C)CC2)c1C |  | 12.6 µM [rising, single point]
30 | CC(Oc1ccc(Cl)cc1Cl)c1ccnc2nc(N3CCOCC3)nn12 (configuration not stated) | 0.0282 µM [falling, full curve, poor fit] | 
31 | CCCCC1(Cc2cccc([N+](=O)[O-])c2)C(=O)N(c2ccccc2)N(c2ccccc2)C1=O |  | 11.2 µM [rising, partial curve]
32 | COc1ccc(-c2nc(N)nc(C)c2Oc2ccccc2Br)c(O)c1 | 35.5 µM [falling, single point] | 35.5 µM [falling, single point]
33 | Cc1nn(-c2ccccc2)c(N2CCCC2)c1/C=N/Nc1ccc(S(=O)(=O)Nc2ccccc2)cc1[N+](=O)[O-] |  | 3.16 µM [rising, full curve]
34 | O=C(NCCCN1CCOCC1)c1cnn2c(-c3ccccc3)cc(-c3ccccc3)nc12 |  | 14.1 µM [rising, single point]
35 | Cc1ccc(NC(=O)CCN2CCN(C/C=C/c3ccccc3)CC2)cc1C | 14.1 µM [rising, single point] | 
36 | CCOC(=O)c1cc(C(=O)OCC)c(=O)[nH]c1C | 0.891 µM [falling, single point] | 0.112 µM [falling, single point]
37 | O=C1CCC/C(=N/NC(=O)c2ccc(CN3c4cccc5cccc(c45)S3(=O)=O)cc2)C1 |  | 22.4 µM [rising, single point]
38 | Cc1ccccc1OCC(O)Cn1c(Br)nc2c1c(=O)n(C)c(=O)n2C (configuration not stated) | 35.5 µM [rising, single point] | 35.5 µM [rising, single point]
39 | CCN1CCN(CCCN(Cc2ccco2)C(=S)Nc2ccc(Cl)c(C)c2)CC1 | 10 µM [falling, partial curve, poor fit] | 
40 | COc1ccc(-c2csc(NC(=O)C3=NN(c4ccccc4)C(=O)CC3)n2)cc1 | 3.98 µM [rising, full curve, poor fit] | 5.62 µM [rising, partial curve, poor fit]
41 | Cc1nc2ccc(S(=O)(=O)N(CC(=O)Nc3ccc(F)cc3)Cc3ccccc3)cc2s1 |  | 0.355 µM [falling, partial curve, poor fit]
42 | CCc1ccc(-c2csc(NC(=O)C3=NN(c4ccccc4)C(=O)CC3)n2)cc1 |  | 2.82 µM [rising, full curve]
43 | Cc1ccc(S(=O)(=O)N2CCOCC2)cc1C(=O)NCc1cn2ccsc2n1 | 3.98 µM [rising, full curve, poor fit] | 
44 | CC(C)(C)OC(=O)N1CCC(c2c(C(=O)N3CCN(C(=O)c4ccco4)CC3)cnn2-c2ccc(F)cc2F)CC1 |  | 0.0112 µM [falling, full curve]
45 | Cc1ccc2nc(SC(C)C(=O)NCc3ccco3)[nH]c2c1 (configuration not stated) | 4.47 µM [rising, partial curve] | 
46 | COc1cccc(/C=C2\SC(=S)N(c3cccnc3)C2=O)c1OC | 0.398 µM [rising, full curve, poor fit] | 
47 | Cc1ccc(NC2=C(Cl)C(=O)OC2OC(=O)c2ccco2)cc1 (configuration not stated) |  | 12.6 µM [rising, single point]
48 | O=C(c1c[nH]c(C(=O)N2CCN(Cc3ccccc3)CC2)c1)C1CCCCC1 |  | 0.0794 µM [falling, full curve, poor fit]
49 | COc1ccc2[nH]cc(CCNc3nc(-c4ccccc4CN(C)C)nc4ccccc34)c2c1 |  | 12.6 µM [rising, partial curve]
50 | COc1ccccc1CNC(=O)c1ccc(Cn2c(SCc3ccccc3)nc3cccnc32)cc1 | 0.0112 µM [falling, full curve, poor fit] | 0.01 µM [falling, full curve, poor fit]
51 | CC1CN(S(=O)(=O)c2cccc(-c3csc(-c4ccccc4)n3)c2)CC(C)O1 (configuration not stated) | 31.6 µM [rising, single point] | 31.6 µM [rising, single point]
52 | Cc1nn(-c2ccccc2)c(C)c1NC(=O)COc1ccc(F)cc1Cl | 14.1 µM [rising, partial curve] | 14.1 µM [rising, partial curve]
53 | O=C(/C=C(\c1ccccc1)n1cncn1)c1ccccc1 | 3.98 µM [rising, partial curve] | 
54 | COc1ccc(C(=O)/C=C/C(=O)N(CC(=O)NC2CCCCC2)Cc2ccc(F)cc2)c(O)c1 | 6.31 µM [falling, full curve] | 5.62 µM [falling, full curve]
55 | O=C(CC1SC(=Nc2cccc3ccccc23)N(Cc2ccccn2)C1=O)Nc1ccccc1Br (configuration not stated) | 3.16 µM [rising, full curve] | 3.55 µM [rising, partial curve]

Molecules from the list above that have a thiophene ring, fused or not (two):
Row | SMILES | AC50 [1] | AC50 [2]
1 | CCCCNC(=O)C1CCC(Cn2c(=O)c3sccc3n(CC(=O)Nc3ccccc3)c2=O)CC1 (configuration not stated) | 22.4 µM [falling, single point] | 17.8 µM [falling, partial curve]
19 | Cc1c(C(=O)N(C)C)sc2c1c(=O)n(-c1ccc(Cl)cc1)c(=O)n2CC(=O)C(C)(C)C | 8.91 µM [falling, full curve, poor fit] | 
